Reference: article PMC8536713

Biological target: T1, Nop2-TAP (S. cerevisiae) (UniProt P40991)
T1 sequence: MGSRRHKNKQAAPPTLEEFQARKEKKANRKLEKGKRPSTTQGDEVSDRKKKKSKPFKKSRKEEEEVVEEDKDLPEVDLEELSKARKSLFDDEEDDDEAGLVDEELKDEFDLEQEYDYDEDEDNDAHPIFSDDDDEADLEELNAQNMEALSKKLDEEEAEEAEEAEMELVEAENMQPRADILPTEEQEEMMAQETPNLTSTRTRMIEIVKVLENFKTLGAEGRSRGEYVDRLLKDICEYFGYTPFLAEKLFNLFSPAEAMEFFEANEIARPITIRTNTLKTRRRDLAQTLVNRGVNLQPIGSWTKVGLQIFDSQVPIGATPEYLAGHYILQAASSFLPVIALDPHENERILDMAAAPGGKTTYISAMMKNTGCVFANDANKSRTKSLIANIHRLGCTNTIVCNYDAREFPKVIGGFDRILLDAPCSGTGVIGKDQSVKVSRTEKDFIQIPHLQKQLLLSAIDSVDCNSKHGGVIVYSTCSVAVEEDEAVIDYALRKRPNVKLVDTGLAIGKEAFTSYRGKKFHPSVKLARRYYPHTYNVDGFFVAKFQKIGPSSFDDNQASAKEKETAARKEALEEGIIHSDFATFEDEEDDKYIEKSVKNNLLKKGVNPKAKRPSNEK
Experiment: affinity purification with mass spectrometry; Nop2-TAP particles isolated from whole-cell lysate of wild-type and Δdbp7 cells on IgG sepharose, eluted by overnight TEV cleavage; MS, two biological replicates

B1: Rlp7 (protein, UniProt P40693 1-322)
chain: MSSTQDSKAQTLNSNPEILLRKRRNADRTRIERQELAKKKREEQIKKKRSNKNKFVRAESIVAKTLATSREKERIKRVSILEDKKAKNETQHIASGKDFILKITEKANGAEENSVDLEETEEEEDDGLIREKTTYDGKPALLFIVRVRGPLAVNIPNKAFKILSLLRLVETNTGVFVKLTKNVYPLLKVIAPYVVIGKPSLSSIRSLIQKRGRIIYKGENEAEPHEIVLNDNNIVEEQLGDHGIICVEDIIHEIATMGESFSVCNFFLQPFKLNREVSGFGSLNRLRKIKQREAESRTRQFSNAATAPVIEVDIDSLLAKLN
B1 was tested, and the binding was “binds”.

B2: Cic1 (protein, UniProt P38779 1-376)
chain: MAKKSNSKKSTPVSTPSKEKKKVIEKKSSTAIPRERVIKAVNELIKFTSKPQDENNEEGNNGKKNLLEDDEEELKKDLQLIVVNNKSFTGTSKSFKLKLLNVKHSFYKPWKEASATAVKDFKVLLILKDSDIKKVSEDDLFDQLDSEGIKVDEIICGKDLKTVYKAYEARNAFISQFSLILADDSIVTSLPKLMGGKAYNKVETTPISIRTHANKEFSLTTLTNNIKKVYMNQLPVKLPRGTTLNVHLGNLEWLRPEEFVDNVELISEQLIKAYQIRSIFIKTNRSPVLPLYYNQDVLDELEAKKDKIEETHEDDMVTIDGVQVHLSTFNKGLMEIANPSELGSIFSKQINNAKKRSSSELEKESSESEAVKKAKS
For B2, the binding was “binds”.

B3: Nop15 (protein, UniProt P53927 1-220)
chain: MVKSTSKTSTKETVTKQPTEEKPIQEKEELALETSSSSSDEEDEKDEDEIEGLAASDDEQSGTHKIKRLNPKKQANEKKSKDKKTLEEYSGIIYVSRLPHGFHEKELSKYFAQFGDLKEVRLARNKKTGNSRHYGFLEFVNKEDAMIAQESMNNYLLMGHLLQVRVLPKGAKIEKLYKYKKRVLVEKGITKPVKQLKDNMKQKHEERIKKLAKSGIEFKW
With B3 the binding was “binds”.

B4: Npa2 (protein, UniProt P47108 1-1174)
chain: MGDLTEELSIPDNAQDLSKLLRSTSTKPHQIAEIVSKFDKLETYFPKKEIFVLDLLIDRLNNGNLDDFKTSEHTWIIFTRLLDAINDPISIKKLLKKLKTVPVMIRTFFLWPKDKLLTRSVSFIKAFFAINDYLIVNFSVEESFQLLEHAINGLSSCPTTDFALSYLQDACNLTHVDNITTTDNKIATCYCKHMLLPSLRYFAQTKNSASSNQSFIRLSHFMGKFLLQPRIDYMKLNKKFVQENASEITDDMAYYYFATFVTFLSKDNFAQLEVIFTILGAKKPSLECRFLNLLSESKKTVSQEFLEALLLEMLASTDESGVLSLIPIILKLDIEVAIKHIFRLLELIQLENLNDPLFSSHIWDLIIQSHANARELSDFFAKINEYCSRKGPDSYFLINHPAYVKSITKQLFTLSSLQWKNLLQALLDQVNHDSTNRVPLYLIRICLEGLSEGASRATLDEVKPILSQVFTLESFNNSLQWDLKYHIMEVYDDIVPAEELEKIDYVLSSNIFDTTSADVEELFFYCFKLREYISFDLSDAKKKFMRHFEILDEERKSNLSYSVVSKFATLVNNNFTREQISSLIDSLLLNSTNLSSLLKNDDIFEETNITYALINKLASSYHQTFALEALIQIPIQCINKNVRVALINNLTCESFCLDSATRECLLHLLSSPTFKSNIETNFYELCEKTIMSPEMAISETGDEKKEIEDKISIFEKVWTNHLSQAKEPVSEKFLESGYDIVKQSMSLSNGDSKLIIAGFTIAKFLKPDNKHRDIQGMAISYAVKILENYSENFESETIPLFRISMSTLYKIITTGQGDISKHKSRILDIFSKIMLRYHSKKVYHAPEEQEMFLVHSLLTENKLEYIFAEYLNIEHTDKCDSALGFCLEESLKQGPDAFNRLLWNSAKSFSTISQPCAEKFVRVFIIMSKRIARDNNLGHHLFVIALLEAYTYCDIEKFGYKSYLLLFNAIKEFLVSKPWLFSQYCIEMLLPFCLKTLAFIVNHESTDEINEGFINIIEVIDHMLLVHRFKFSNRHHLFNSVLCQILEIIAIHDGTLCANSADAVARLITNYCEPYNVSNAQNGQKNNLSSKISLIKQSIRKNVLVVLTKYIQLSITTQFSLNIKKSLQPGIHAIFDILSQNELNQLNAFLDTPGKQYFKALYLQYKKVGKWRED
With B4 the binding was “binds”.

B5: Nop8 (protein, UniProt Q08287 1-484)
chain: MDSVIQKRIFVGNIFHNADDCYSELLDRFGKFGDCQDFQFEKHNHFAFIDIRFNDEADFNKLRKSFNNVKFKGNILKVDEAKPNWESTWAVQHAKDLKEDIILNAKMKKKNWQHYKKMENVAKSWKDHKEVIAGRMREAPRKRSQLRNITFRINVNGSLKVYKCYKTKLWGYERNKELNDLVYKFTNNFWKNGYNHIVDRLDYSRAVKTVRFKNGLKQLTVSKDENVCSGEMDSDENMSEEEKEKNNVILNDLLKDFDFDKPMTLNDSDEELLTEQRKGEEEEEEEEEKEVNAPEYENVNKTKDQSTLPQEKPEERKEQDEGDGQEDNEFIPTFTKEIGQGTISNTETLRNLFNPNEAEPVSQFKLIEDSDNDIDHAKDVDVNQLEEEVSKSSDTLGLTSAPVPHVSRDKDNKNFLFFPHLQSPFLVGQTQLSKVRAPGRETMLSNWDEEFWANRGNWTRDMRRKMKDALKHRKRKQSKSGLLL
For B5, the binding was “binds”.

B6: Rsa3 (protein, UniProt Q05942 1-220)
chain: MSAGDISAINIKSVKKNRRRKKRRTADVSSSDSSSSDPSSESEKEEIQNGAIEEHVGENGKSDHVFSKGNDEDKQEDIAIEVSDVELTDEESKDLKLNSKEVIDDLTKISLSKIPEPTKSQNKEGFMNASKIAENIKLAREEYNELAENFVPKGKDKTKLREEYLNLLFENYGDDINRLRAAPDFTNKSLSILADALQEGIGMFDIGELELVLKNKEMEN
For B6, the binding was “binds”.

B7: Dbp6 (enzyme, UniProt P53734 1-629)
chain: MFASRFDPSQLTAPAASAPEGIVGTTPPAIVPLKRQATESDNEEYGSHQDSDESSNSSSEEDEDRMQVDYGASEEDSSEVEEEESKPSTHSTVLSRFKQTVSLQERLGASDIAESKEDEGIEDEAASTHQLKQIPQPEFVKNPMNLNTNSLQFKSTGWLNTEKIYYDNSLIKPFSDYANELEAKLLQNICKNFSTNTFPIQSIILDSILPVLNFTLNVSKRNFTRRIGDILVNAATGSGKTLAYSIPIVQTLFKRQINRLRCIIIVPTKLLINQVYTTLTKLTQGTSLIVSIAKLENSLKDEHKKLSNLEPDILITTPGRLVDHLNMKSINLKNLKFLIIDEADRLLNQSFQGWCPKLMSHLKTDKLDTLPGNVIKMIFSATLTTNTEKLNGLNLYKPKLFLKQTDKLYQLPNKLNEFNINIPTAKSVYKPLILLYSICQFMAHSPIAAKILIFVKSNESSIRLSKLLQLICESRSQSSVLKNLQNLAVSINSVNSNNSKAENKKIVANFSHHSESAGITILITTDIMSRGIDINDITQVINYDPPMSSQQYVHRVGRTARANELGSAYNLLVGRGERTFFDDLNKDLDRDGKSVQPLELDFTLLESDSELYTSSLESLKNYHNNTAQA
B7 was tested, and the binding was “binds”.

B8: Dbp9 (enzyme, UniProt Q06218 1-594)
chain: MSYEKKSVEGAYIDDSTTFEAFHLDSRLLQAIKNIGFQYPTLIQSHAIPLALQQKRDIIAKAATGSGKTLAYLIPVIETILEYKKTIDNGEENGTLGIILVPTRELAQQVYNVLEKLVLYCSKDIRTLNISSDMSDSVLSTLLMDQPEIIVGTPGKLLDLLQTKINSISLNELKFLVVDEVDLVLTFGYQDDLNKIGEYLPLKKNLQTFLMSATLNDDIQALKQKFCRSPAILKFNDEEINKNQNKLLQYYVKVSEFDKFLLCYVIFKLNLIKGKTLIFVNNIDRGYRLKLVMEQFGIKSCILNSELPVNSRQHIVDQFNKNVYQLLIATDDTEYIKEEDDEIEEGHNTENQEEKSLEGEPENDKKPSKKKKVQVKKDKEYGVSRGVDFKNVACVLNFDLPTTAKSYVHRVGRTARGGKTGTAISFVVPLKEFGKHKPSMLQTAKKDERILSRIIKQQSKLGLELQPYKFDQKQVEAFRYRMEDGFRAVTQVAIREARVKELKQELLASEKLKRHFEENPKELQSLRHDKELHPARVQQHLKRVPDYLLPESARGNGTKVKFVPFHNAKKRHSHKKGRVSKPKNGKVDPLKNFK
B8 was tested, and the binding was “binds”.

No constants are given. Whether binding was seen depends on the method and setting. Binding seen in cells or lysates may run through a third protein. Here binding means that the protein was enriched with, or labelled near, the bait; the list need not be complete.
